For at least one entry, the source does not settle the construct or the ends of the probe.
System: MITF/MITF homodimer
Test: EMSA
Conditions: MITF/MITF/Ebox complex; disrupted by compounds 79, 92, 101; purified recombinant protein; label: 5' biotin-triethyleneglycol

Chains of the proteins cited; added tags and fusions are not shown. Chains listed by the source or under a name are the forms on record and can include a tag or linker.
MITF/MITF homodimer, one chain, as listed by the source: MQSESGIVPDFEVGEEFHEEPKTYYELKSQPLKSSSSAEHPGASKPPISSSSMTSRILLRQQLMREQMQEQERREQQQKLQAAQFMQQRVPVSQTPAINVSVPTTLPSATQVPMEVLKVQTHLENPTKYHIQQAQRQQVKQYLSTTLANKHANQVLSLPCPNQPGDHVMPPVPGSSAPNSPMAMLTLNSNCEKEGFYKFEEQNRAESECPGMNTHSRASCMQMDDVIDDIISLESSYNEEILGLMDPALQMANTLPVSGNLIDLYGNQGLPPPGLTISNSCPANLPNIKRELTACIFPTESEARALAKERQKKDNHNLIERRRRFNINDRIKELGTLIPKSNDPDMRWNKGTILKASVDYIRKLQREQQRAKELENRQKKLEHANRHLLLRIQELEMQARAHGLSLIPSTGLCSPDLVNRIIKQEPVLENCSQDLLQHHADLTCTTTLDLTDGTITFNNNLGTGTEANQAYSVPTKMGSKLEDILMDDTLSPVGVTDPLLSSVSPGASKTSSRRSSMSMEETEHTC

“GGAAGCAGACCACGTGGTCTGCTTCC (double strand) [Ebox DNA]”: binds.

From patent US20150291521, “PYRROL-1-YL BENZOIC ACID DERIVATIVES USEFUL AS MYC INHIBITORS” (DANA-FARBER CANCER INSTITUTE, INC., published 2015)
